Measurements published in the supplement of paper PMC10849652.
The other results are listed elsewhere or left out. Residues, ends and D or L forms follow the SMILES beside them. *: point of attachment. Cbz = O=C(OCc1ccccc1)*

Chains of the proteins cited; added tags and fusions are not shown. Lines headed by an entry give the natural chain unless they say otherwise; changes in a name come on top.
UniProt Q96BW9: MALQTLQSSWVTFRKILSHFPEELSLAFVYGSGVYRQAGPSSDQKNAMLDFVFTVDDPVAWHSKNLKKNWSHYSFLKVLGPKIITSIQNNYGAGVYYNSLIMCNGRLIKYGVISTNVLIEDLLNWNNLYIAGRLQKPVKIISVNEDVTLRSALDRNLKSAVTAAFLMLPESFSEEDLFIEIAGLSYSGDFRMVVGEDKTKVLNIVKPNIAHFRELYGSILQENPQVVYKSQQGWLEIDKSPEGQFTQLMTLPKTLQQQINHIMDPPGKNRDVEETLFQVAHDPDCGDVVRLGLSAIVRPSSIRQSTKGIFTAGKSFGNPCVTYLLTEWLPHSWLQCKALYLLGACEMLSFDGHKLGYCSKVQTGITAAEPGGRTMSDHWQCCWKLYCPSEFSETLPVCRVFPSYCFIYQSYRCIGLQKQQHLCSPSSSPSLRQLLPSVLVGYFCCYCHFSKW
UniProt O15056: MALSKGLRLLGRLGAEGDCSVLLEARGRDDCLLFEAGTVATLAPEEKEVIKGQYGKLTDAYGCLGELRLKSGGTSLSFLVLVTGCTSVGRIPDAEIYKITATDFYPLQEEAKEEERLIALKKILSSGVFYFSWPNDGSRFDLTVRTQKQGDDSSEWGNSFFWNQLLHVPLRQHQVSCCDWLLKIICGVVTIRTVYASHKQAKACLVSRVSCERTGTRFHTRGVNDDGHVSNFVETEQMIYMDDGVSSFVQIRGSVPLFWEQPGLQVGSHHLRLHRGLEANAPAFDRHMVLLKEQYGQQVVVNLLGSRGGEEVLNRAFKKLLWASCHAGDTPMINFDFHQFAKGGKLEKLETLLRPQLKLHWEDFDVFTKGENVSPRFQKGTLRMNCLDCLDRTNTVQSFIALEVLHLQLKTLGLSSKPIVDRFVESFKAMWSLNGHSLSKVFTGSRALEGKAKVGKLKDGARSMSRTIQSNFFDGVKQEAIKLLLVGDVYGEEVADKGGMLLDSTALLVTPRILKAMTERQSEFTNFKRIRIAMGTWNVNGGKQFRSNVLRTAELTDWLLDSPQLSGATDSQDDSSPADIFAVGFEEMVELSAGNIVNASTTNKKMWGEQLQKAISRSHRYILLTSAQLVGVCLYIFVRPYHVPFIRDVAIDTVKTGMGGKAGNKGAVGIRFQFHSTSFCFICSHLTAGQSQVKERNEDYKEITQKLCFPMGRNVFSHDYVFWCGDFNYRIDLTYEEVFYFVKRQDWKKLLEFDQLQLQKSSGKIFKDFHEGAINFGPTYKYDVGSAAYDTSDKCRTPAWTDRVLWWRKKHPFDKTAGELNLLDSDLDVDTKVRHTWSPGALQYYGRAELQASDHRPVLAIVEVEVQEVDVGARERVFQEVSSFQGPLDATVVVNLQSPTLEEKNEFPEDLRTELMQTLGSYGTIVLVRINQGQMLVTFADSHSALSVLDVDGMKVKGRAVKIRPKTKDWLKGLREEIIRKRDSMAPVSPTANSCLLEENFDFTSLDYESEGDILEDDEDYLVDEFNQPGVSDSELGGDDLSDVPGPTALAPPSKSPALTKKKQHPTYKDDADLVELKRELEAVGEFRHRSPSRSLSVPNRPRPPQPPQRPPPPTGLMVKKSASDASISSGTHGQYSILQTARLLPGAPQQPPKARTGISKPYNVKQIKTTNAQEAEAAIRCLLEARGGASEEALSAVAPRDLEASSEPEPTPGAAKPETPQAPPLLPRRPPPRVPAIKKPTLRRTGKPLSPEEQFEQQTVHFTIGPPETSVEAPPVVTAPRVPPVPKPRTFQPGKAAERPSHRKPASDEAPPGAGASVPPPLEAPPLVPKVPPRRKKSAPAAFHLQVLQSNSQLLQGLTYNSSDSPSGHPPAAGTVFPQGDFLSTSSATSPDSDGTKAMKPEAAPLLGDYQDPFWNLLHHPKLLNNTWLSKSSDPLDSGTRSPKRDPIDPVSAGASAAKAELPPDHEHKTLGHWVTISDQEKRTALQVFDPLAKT
UniProt Q9UH99: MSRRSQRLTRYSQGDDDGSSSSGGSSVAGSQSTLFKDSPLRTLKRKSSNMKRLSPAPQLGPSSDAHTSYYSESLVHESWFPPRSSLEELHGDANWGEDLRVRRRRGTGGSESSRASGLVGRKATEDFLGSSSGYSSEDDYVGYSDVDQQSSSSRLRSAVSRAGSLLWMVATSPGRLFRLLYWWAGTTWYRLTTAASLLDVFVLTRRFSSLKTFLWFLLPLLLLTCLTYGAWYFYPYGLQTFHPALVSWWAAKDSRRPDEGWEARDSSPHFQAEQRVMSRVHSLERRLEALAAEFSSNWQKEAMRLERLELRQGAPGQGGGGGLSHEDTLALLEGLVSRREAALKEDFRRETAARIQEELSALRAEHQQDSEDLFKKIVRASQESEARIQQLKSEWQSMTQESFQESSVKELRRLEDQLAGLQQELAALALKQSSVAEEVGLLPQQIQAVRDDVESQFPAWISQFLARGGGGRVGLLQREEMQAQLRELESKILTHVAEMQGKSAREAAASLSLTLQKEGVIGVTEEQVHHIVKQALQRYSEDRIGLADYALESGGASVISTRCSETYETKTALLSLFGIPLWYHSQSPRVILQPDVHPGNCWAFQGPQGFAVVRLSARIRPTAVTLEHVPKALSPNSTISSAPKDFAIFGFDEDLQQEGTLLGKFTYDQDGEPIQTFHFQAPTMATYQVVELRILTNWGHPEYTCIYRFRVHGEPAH
UniProt P50225: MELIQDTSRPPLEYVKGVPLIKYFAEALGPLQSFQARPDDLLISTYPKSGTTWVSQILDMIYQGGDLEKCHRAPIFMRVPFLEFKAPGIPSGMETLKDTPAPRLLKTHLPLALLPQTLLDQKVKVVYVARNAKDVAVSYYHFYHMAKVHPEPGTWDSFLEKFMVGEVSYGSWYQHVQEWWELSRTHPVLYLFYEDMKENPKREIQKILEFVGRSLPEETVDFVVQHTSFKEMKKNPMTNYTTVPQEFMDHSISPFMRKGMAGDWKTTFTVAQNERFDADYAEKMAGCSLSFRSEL
UniProt P61956, whole entry, looked up: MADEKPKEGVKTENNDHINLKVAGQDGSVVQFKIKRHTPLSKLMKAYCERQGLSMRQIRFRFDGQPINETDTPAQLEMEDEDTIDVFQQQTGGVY
UniProt Q15208: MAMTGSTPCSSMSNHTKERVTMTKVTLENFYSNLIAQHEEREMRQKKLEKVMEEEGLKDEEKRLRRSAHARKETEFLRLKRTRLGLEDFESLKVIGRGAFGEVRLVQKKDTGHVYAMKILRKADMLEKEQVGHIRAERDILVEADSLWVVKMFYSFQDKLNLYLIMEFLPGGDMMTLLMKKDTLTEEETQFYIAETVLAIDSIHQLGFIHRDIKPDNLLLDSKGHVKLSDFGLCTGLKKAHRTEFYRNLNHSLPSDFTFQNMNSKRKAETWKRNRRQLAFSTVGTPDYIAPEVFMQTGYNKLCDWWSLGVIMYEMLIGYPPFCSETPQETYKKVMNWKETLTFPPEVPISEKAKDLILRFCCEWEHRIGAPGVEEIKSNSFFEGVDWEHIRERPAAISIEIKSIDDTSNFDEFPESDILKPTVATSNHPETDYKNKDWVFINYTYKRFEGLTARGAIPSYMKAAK
UniProt Q7L7X3: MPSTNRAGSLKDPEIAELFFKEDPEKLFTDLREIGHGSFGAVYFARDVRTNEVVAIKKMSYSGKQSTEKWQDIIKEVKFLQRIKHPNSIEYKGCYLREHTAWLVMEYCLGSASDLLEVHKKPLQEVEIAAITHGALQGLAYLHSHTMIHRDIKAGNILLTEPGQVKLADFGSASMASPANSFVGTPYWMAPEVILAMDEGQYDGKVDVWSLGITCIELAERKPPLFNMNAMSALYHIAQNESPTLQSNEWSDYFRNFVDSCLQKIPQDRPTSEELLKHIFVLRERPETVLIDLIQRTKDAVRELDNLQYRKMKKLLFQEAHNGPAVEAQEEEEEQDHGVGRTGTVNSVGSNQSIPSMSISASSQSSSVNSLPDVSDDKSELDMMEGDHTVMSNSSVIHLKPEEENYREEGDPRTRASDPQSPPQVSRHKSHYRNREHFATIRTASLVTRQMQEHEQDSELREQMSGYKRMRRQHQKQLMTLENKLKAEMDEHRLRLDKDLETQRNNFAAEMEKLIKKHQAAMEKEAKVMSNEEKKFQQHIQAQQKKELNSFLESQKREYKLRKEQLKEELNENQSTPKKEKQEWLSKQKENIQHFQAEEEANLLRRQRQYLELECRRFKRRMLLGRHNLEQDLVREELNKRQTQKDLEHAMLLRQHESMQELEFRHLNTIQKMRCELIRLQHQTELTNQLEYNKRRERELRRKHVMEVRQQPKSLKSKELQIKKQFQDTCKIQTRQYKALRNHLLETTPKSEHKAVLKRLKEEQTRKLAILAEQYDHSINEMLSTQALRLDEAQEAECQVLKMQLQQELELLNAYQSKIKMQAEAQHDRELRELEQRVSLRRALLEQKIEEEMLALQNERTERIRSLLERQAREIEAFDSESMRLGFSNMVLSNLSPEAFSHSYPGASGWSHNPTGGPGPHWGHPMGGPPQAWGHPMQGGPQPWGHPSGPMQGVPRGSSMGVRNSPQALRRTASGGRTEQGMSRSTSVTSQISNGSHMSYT
UniProt Q9BW92: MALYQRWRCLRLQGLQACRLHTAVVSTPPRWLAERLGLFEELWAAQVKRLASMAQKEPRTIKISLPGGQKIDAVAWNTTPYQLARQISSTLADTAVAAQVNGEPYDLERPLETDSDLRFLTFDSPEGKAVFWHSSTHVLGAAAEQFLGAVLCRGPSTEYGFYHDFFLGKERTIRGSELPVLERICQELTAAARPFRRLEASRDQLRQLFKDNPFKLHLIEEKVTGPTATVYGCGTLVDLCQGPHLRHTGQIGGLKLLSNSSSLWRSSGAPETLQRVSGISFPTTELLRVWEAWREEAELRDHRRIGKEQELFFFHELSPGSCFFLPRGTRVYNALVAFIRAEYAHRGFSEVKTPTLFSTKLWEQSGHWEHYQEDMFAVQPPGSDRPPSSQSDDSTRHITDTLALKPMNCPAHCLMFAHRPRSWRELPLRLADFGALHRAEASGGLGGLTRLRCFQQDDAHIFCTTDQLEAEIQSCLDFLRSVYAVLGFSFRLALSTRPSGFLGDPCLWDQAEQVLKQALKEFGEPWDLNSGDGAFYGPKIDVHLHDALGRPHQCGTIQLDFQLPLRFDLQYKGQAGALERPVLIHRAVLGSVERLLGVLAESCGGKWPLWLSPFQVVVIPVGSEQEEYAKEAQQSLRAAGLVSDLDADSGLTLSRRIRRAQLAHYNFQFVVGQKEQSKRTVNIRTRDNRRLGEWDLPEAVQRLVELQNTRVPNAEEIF
UniProt Q9UBS9: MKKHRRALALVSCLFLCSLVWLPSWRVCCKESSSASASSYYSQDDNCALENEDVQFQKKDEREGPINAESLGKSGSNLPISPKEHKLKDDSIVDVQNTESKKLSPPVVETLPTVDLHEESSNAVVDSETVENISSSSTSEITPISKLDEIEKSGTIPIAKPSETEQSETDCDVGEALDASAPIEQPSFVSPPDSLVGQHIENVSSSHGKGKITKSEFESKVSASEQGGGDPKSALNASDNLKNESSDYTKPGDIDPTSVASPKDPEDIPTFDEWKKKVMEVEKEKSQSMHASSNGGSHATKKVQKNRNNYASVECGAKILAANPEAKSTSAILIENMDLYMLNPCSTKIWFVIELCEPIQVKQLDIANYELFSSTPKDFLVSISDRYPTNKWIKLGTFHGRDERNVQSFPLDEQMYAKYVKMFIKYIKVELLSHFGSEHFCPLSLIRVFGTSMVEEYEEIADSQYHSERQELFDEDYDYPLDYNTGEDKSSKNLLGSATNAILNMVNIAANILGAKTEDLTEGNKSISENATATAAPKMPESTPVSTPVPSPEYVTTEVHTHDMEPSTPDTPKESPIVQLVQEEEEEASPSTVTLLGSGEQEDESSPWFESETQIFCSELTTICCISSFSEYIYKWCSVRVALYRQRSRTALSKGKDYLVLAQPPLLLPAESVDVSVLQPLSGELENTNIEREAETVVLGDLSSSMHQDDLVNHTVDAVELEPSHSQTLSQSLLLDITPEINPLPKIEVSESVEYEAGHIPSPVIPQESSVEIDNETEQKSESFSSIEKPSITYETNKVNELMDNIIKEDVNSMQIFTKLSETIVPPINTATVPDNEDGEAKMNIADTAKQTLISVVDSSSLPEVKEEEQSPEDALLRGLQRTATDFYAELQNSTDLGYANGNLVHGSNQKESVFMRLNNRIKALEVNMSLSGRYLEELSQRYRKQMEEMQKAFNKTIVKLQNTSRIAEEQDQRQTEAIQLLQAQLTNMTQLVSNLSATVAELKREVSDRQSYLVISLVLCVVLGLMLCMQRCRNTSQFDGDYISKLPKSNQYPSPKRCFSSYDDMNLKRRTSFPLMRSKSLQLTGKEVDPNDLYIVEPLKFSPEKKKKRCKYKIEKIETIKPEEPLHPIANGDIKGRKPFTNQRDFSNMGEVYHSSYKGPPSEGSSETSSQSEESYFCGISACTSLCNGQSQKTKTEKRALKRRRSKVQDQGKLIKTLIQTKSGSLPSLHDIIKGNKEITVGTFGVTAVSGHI

Legend:
Experiment in all cases: log2 fold change, soluble protein after heating vs DMSO (PISA); higher = thermal stabilisation; K562 cells, 10 uM, 30 min; active = over 0.2 and 3.5 SD of the protein, either way, in both replicates (recomputed)
erlotinib = compound: C#Cc1cccc(Nc2ncnc3cc(OCCOC)c(OCCOC)cc23)c1 [erlotinib]
Procedure, shortened: (§1)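 Thermal stability values are relative to control samples and come from duplicates. They are expressed as log2 fold changes. For measurement, K562 cells (2×10^6 cells/mL) received 10 μM compound for 30 min, and aliquots were heated for 3 min over 48°C-58°C, pooled, and extracted at 4°C in PBS with 0.5% NP-40. Soluble protein, the supernatant after 21,000xg for 90 min, was quantified by TMTpro 16plex LC-MS/MS with equalised channel sums.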

[1] = compound: C/C(=N\NC(=O)C1=CC(=CC=C1)S(=O)(=O)N2CCOCC2)/C3=C(C=CC(=C3)Cl)O
Procedure, shortened: as §1

[2] = compound: C1=CC(=C(C=C1Cl)C2=NC3=NC=CN=C3C(=N2)NC4=CC=NC=C4)F
Procedure, shortened: as §1

[3] = compound: C1=CC(=CC=C1C2=NC3=C(N2)C=C(C=C3)C(=O)N)OC4=CC=C(C=C4)Cl
Procedure, shortened: as §1

[4] = compound: C1=CC2=C(C=CC(=C2)/C=C\3/C(=O)NC(=NCC4=CC=CS4)S3)N=C1
Procedure, shortened: as §1

[5] = compound: C1=CC=C(C=C1)C2=NC(=C(N2)C3=CC=NC=C3)C4=CC(=C(C=C4)Cl)O
Procedure, shortened: as §1

[6] = compound: C1=CC=C2C(=C1)C3=NNC4=CC=CC(=C43)C2=O
Procedure, shortened: as §1

[7] = compound: C1CCN(C1)C(=O)NC2=CC=CC(=C2)NC3=NC=C(C(=N3)NCCC4=CN=CN4)Br
Procedure, shortened: as §1

[8] = compound: C1CN(CCC1(CC2=CC=C(C=C2)Cl)N)C3=NC=NC4=C3C=CN4
Procedure, shortened: as §1

IRAK-1-4 Inhibitor I = compound: C1COCCN1CCN2C3=CC=CC=C3N=C2NC(=O)C4=CC(=CC=C4)[N+](=O)[O-] [IRAK-1-4 Inhibitor I]
Procedure, shortened: as §1

[9] = compound: CC(=O)c1cnc2ccc(-c3cc(Cl)c(O)c(Cl)c3)nc2c1N[C@H]1CC[C@H](CN(C)C)CC1
Procedure, shortened: as §1

ralimetinib = compound: CC(C)(C)Cn1c(N)nc2ccc(-c3[nH]c(C(C)(C)C)nc3-c3ccc(F)cc3)nc21 [ralimetinib]
Procedure, shortened: as §1

[10] = compound: CC(C)(O)CC(=O)NCCn1ccc2ncnc(Nc3ccc(Oc4cccc(C(F)(F)F)c4)c(Cl)c3)c21
Procedure, shortened: as §1

[11] = compound: CC(C)C1=C2N=C(C=C(N2N=C1)NCC3=CC=CC=C3)NCCCCCCN
Procedure, shortened: as §1

[12] = compound: CC(C)C[C@@H](C=O)NC(=O)[C@H](CC(C)C)NC(=O)[C@H](CC(C)C)NC(=O)OCc1ccccc1
Procedure, shortened: as §1

pinometostat = compound: CC(C)N(C[C@H]1O[C@@H](n2cnc3c(N)ncnc32)[C@H](O)[C@@H]1O)[C@H]1C[C@@H](CCc2nc3cc(C(C)(C)C)ccc3[nH]2)C1 [pinometostat]
Procedure, shortened: as §1

[13] = compound: CC1=C(C(CC(=O)N1)C2=CC=C(C=C2)C(F)(F)F)C(=O)NC3=C(C=C4C(=C3)C=NN4)F
Procedure, shortened: as §1

[14] = compound: CC1=C(C2=C(C=C1)C(=O)C3=CC=CC=C3N2CCCN)C
Procedure, shortened: as §1

[15] = compound: C1=CC2=NC=CN=C2C=C1/C=C/3\C(=O)NC(=O)S3
Procedure, shortened: as §1

ibrutinib = compound: C=CC(=O)N1CCC[C@@H](n2nc(-c3ccc(Oc4ccccc4)cc3)c3c(N)ncnc32)C1 [ibrutinib]
Procedure, shortened: as §1

Target | log2 fold change (erlotinib) | log2 fold change [1] | log2 fold change [2] | log2 fold change [3] | log2 fold change [4] | log2 fold change [5] | log2 fold change [6] | log2 fold change [7] | log2 fold change [8] | log2 fold change (IRAK-1-4 Inhibitor I) | log2 fold change [9] | log2 fold change (ralimetinib) | log2 fold change [10] | log2 fold change [11] | log2 fold change [12] | log2 fold change (pinometostat) | log2 fold change [13] | log2 fold change [14] | log2 fold change [15] | log2 fold change (ibrutinib)
SUMF1 isoform 3 (UniProt Q8NBK3) | inactive: -0.058 | inactive: 0.232 | inactive: -0.018 | inactive: 0.079 | inactive: -0.084 | inactive: 0.023 | inactive: 0.081 | inactive: 0.098 | inactive: -0.062 | inactive: 0.013 | inactive: -0.143 | inactive: 0.224 | inactive: 0.052 | inactive: 0.005 | inactive: -0.037 | inactive: 0.119 | inactive: -0.38 | inactive: -0.098 | – | –
TAMM41 isoform 3 (UniProt Q96BW9) | inactive: 0.047 | inactive: 0.03 | inactive: 0.058 | inactive: -0.007 | inactive: 0.061 | inactive: 0.045 | inactive: 0.007 | inactive: -0.007 | inactive: 0.056 | inactive: 0.075 | inactive: -0.061 | inactive: -0.04 | inactive: -0.172 | inactive: -0.214 | inactive: 0.043 | inactive: 0.015 | – | inactive: 0.169 | inactive: 0.009 | inactive: 0.022
SYNJ2 (UniProt O15056) | inactive: 0.008 | inactive: 0.24 | inactive: -0.066 | inactive: -0.009 | inactive: -0.008 | inactive: -0.006 | inactive: 0.148 | – | – | inactive: -0.135 | inactive: -0.096 | inactive: 0.053 | inactive: -0.079 | inactive: -0.152 | inactive: 0.095 | inactive: 0.071 | inactive: 0.03 | – | inactive: -0.09 | inactive: 0.111
STX17 (UniProt P56962) | inactive: 0.206 | inactive: 0.003 | inactive: 0.124 | inactive: 0.015 | inactive: 0.041 | inactive: -0.01 | inactive: 0.059 | inactive: -0.004 | inactive: 0.027 | inactive: -0.062 | inactive: 0.031 | inactive: 0.037 | inactive: -0.063 | inactive: -0.235 | inactive: 0.028 | inactive: 0.006 | – | inactive: 0.138 | inactive: 0.016 | inactive: 0.002
TAF4 (UniProt O00268) | inactive: 0.007 | inactive: -0.022 | inactive: 0.031 | inactive: 0.072 | inactive: 0.127 | inactive: -0.063 | inactive: -0.119 | inactive: 0.089 | inactive: -0.08 | inactive: 0.07 | inactive: -0.091 | inactive: -0.126 | inactive: -0.118 | inactive: -0.081 | inactive: 0.039 | inactive: 0.061 | – | inactive: -0.019 | inactive: 0.094 | inactive: 0.12
SUN2 (UniProt Q9UH99) | inactive: -0.067 | inactive: 0.023 | inactive: -0.031 | inactive: -0.004 | inactive: -0.012 | inactive: 0.005 | inactive: -0.087 | inactive: -0.038 | inactive: -0.017 | inactive: -0.04 | inactive: -0.044 | inactive: 0.072 | inactive: -0.119 | active: -0.211 | inactive: 0.041 | inactive: 0.027 | – | inactive: -0.117 | inactive: 0.02 | inactive: 0.056
SUN1 isoform 9 (UniProt O94901) | inactive: 0.055 | inactive: 0.037 | active: -0.346 | inactive: 0.032 | inactive: 0.066 | inactive: -0.052 | inactive: 0.066 | inactive: 0.057 | inactive: 0.094 | inactive: -0.028 | inactive: -0.114 | inactive: 0.067 | inactive: 0.115 | inactive: -0.149 | inactive: 0.042 | inactive: 0.128 | – | inactive: -0.05 | – | –
SULT1A1 (UniProt P50225) | inactive: -0.003 | inactive: 0.009 | inactive: 0.109 | inactive: 0.381 | active: 0.375 | inactive: 0.008 | active: 0.396 | inactive: -0.111 | inactive: 0.012 | inactive: -0.077 | inactive: -0.099 | inactive: -0.029 | inactive: -0.104 | inactive: -0.104 | inactive: -0.056 | inactive: 0.001 | – | inactive: 0.048 | inactive: 0.031 | inactive: 0.044
STX7 (UniProt O15400) | inactive: 0.02 | inactive: -0.029 | inactive: 0.02 | inactive: 0.021 | inactive: -0.02 | inactive: -0.009 | inactive: -0.007 | inactive: 0 | inactive: 0.056 | inactive: -0.01 | inactive: 0.011 | inactive: -0.039 | inactive: 0.012 | inactive: -0.087 | inactive: -0.009 | inactive: -0.109 | – | inactive: 0.017 | inactive: 0.02 | inactive: 0.024
STRN3 isoform 2 (UniProt Q13033) | inactive: -0.005 | inactive: -0.163 | inactive: -0.016 | inactive: 0.065 | inactive: 0.03 | – | inactive: -0.005 | inactive: 0.036 | inactive: 0.09 | inactive: 0.114 | inactive: -0.456 | – | inactive: 0.053 | inactive: -0.031 | – | inactive: 0.03 | inactive: -0.044 | inactive: 0.027 | inactive: -0.016 | inactive: -0.013
SUCLG1 (UniProt P53597) | inactive: 0.033 | inactive: 0.027 | inactive: 0.052 | inactive: -0.004 | inactive: 0.012 | inactive: 0.061 | inactive: -0.017 | inactive: 0.021 | inactive: 0.034 | inactive: 0.048 | inactive: -0.018 | inactive: -0.039 | inactive: -0.07 | inactive: -0.058 | inactive: -0.01 | inactive: -0.04 | – | inactive: 0.053 | inactive: -0.017 | inactive: 0.01
TATDN2 (UniProt Q93075) | inactive: 0.071 | inactive: -0.062 | inactive: -0.016 | inactive: -0.013 | inactive: 0.043 | – | inactive: 0.003 | inactive: -0.121 | inactive: 0.06 | inactive: -0.006 | active: -0.402 | – | inactive: 0.102 | inactive: 0.058 | – | inactive: 0.047 | – | inactive: -0.218 | inactive: -0.052 | inactive: 0.072
SUMO2 (UniProt P61956) | inactive: 0.026 | inactive: -0.114 | – | inactive: 0.091 | inactive: -0.228 | inactive: -0.128 | inactive: -0.127 | inactive: 0.047 | inactive: 0.189 | inactive: 0.132 | inactive: 0.095 | inactive: 0.005 | – | inactive: 0.165 | inactive: 0.184 | inactive: -0.016 | inactive: 0.158 | inactive: -0.218 | inactive: 0.126 | inactive: 0.082
STK38 (UniProt Q15208) | inactive: 0.039 | inactive: 0.138 | inactive: 0.029 | inactive: -0.021 | inactive: 0.014 | inactive: 0.057 | inactive: 0.049 | inactive: -0.025 | inactive: -0.05 | inactive: 0.004 | active: -0.308 | inactive: 0.101 | inactive: -0.085 | inactive: -0.089 | inactive: 0.016 | inactive: 0.058 | – | inactive: -0.026 | inactive: 0.079 | inactive: -0.073
TAOK1 (UniProt Q7L7X3) | inactive: 0.006 | inactive: 0.045 | inactive: -0.027 | inactive: 0.09 | inactive: -0.033 | inactive: -0.009 | inactive: -0.007 | inactive: -0.005 | inactive: -0.01 | inactive: 0.011 | active: -0.827 | inactive: 0.062 | inactive: 0.009 | inactive: -0.031 | inactive: 0.018 | inactive: -0.052 | – | inactive: 0.05 | inactive: 0.009 | inactive: -0.057
TARS2 (UniProt Q9BW92) | inactive: 0.042 | active: -0.721 | inactive: 0.021 | inactive: 0.003 | inactive: 0.086 | inactive: -0.03 | inactive: 0.003 | inactive: 0.001 | inactive: -0.058 | inactive: -0.076 | inactive: 0.009 | inactive: -0.029 | inactive: -0.078 | active: -0.219 | inactive: 0.069 | inactive: -0.022 | – | inactive: 0.054 | inactive: 0.038 | inactive: -0.043
SYNE2 isoform 2 (UniProt Q8WXH0) | inactive: 0.405 | active: -0.672 | – | inactive: -0.301 | inactive: 0.084 | inactive: -0.007 | inactive: 0.001 | inactive: -0.045 | inactive: 0.029 | inactive: 0.046 | inactive: 0.059 | inactive: 0.01 | – | inactive: 0.078 | inactive: 0.059 | inactive: -0.024 | – | inactive: 0.044 | inactive: -0.027 | inactive: -0.037
SUCO (UniProt Q9UBS9) | inactive: 0.088 | inactive: -0.143 | inactive: -0.089 | inactive: -0.027 | inactive: 0.186 | inactive: -0.017 | inactive: 0.068 | inactive: -0.101 | inactive: -0.024 | inactive: -0.095 | inactive: -0.199 | inactive: 0.097 | inactive: 0.194 | inactive: -0.047 | inactive: -0.087 | inactive: 0.085 | – | inactive: 0.006 | – | –

Random excerpt: 2 records from the list.
Target | log2 fold change (erlotinib) | log2 fold change [1] | log2 fold change [2] | log2 fold change [3] | log2 fold change [4] | log2 fold change [5] | log2 fold change [6] | log2 fold change [7] | log2 fold change [8] | log2 fold change (IRAK-1-4 Inhibitor I) | log2 fold change [9] | log2 fold change (ralimetinib) | log2 fold change [10] | log2 fold change [11] | log2 fold change [12] | log2 fold change (pinometostat) | log2 fold change [13] | log2 fold change [14] | log2 fold change [15] | log2 fold change (ibrutinib)
STX7 (UniProt O15400) | inactive: 0.02 | inactive: -0.029 | inactive: 0.02 | inactive: 0.021 | inactive: -0.02 | inactive: -0.009 | inactive: -0.007 | inactive: 0 | inactive: 0.056 | inactive: -0.01 | inactive: 0.011 | inactive: -0.039 | inactive: 0.012 | inactive: -0.087 | inactive: -0.009 | inactive: -0.109 | – | inactive: 0.017 | inactive: 0.02 | inactive: 0.024
SULT1A1 (UniProt P50225) | inactive: -0.003 | inactive: 0.009 | inactive: 0.109 | inactive: 0.381 | active: 0.375 | inactive: 0.008 | active: 0.396 | inactive: -0.111 | inactive: 0.012 | inactive: -0.077 | inactive: -0.099 | inactive: -0.029 | inactive: -0.104 | inactive: -0.104 | inactive: -0.056 | inactive: 0.001 | – | inactive: 0.048 | inactive: 0.031 | inactive: 0.044
